Test results published in patent US5574059A, “Treating disorders mediated by vascular smooth muscle cell proliferation” (priority 1995, dated 1996).

Columns and labels:
I2 imidazoline receptors [1] = experiment: inhibition of 3H-idazoxan (5 nM) binding to rat aortic smooth muscle cell membranes; conditions: Table 2, pseudo-Hill coefficient
Method: Binding to I2 imidazoline receptors is determined by the following assay. Membranes are prepared from cultured cells for ligand binding as described in Regunathan, S., et al, Biochem. Pharmacol. 45, 1667-1675 (1993) and Regunathan, S., et al, J. Neurosci. Res. 34, 681-688 (1993) and the disclosure in these on this is incorporated herein by reference. In particular, harvested rat aortic smooth muscle cells are homogenized in Hepes-sucrose buffer (pH 7.4) with a Teflon-glass homogenizer and centrifuged at 1000 × g for 10 minutes. The pellets are suspended in ice-cold Tris-HCl buffer (pH 7.7) with 5mM ethylene diamine tetracetic acid and homogenized using a Polytron (Brinkman Instruments) for 10 seconds. The homogenate is centrifuged at 40,000 × g for 30 minutes to produce a membrane pellet. The membrane pellet is washed three times by resuspending in buffer and re-centrifuging. The washed pellet is suspended in fresh Tris-HCl buffer (pH 7.4) to provide approximately 100 μg protein per assay tube. Binding assays are performed in Tris-HCl buffer (pH 7.7) using 5 nM of […]. Non-specific binding is defined by 100 μM of unlabelled idazoxan which will inhibit the specific binding of ^3 H-idazoxan. Thus the binding remaining in the presence 100 μM of idazoxan is due to non-specific binding and this will be substracted from total binding to calculate the specific binding. Following incubation at 25° C. for 30 minutes, reaction is terminated by rapid vacuum filtration over Whatman GF/B filters and washed with 10 ml of ice-cold buffer. Filters are suspended in scintillation fluid and radioactivity counted in a liquid scintillation counter. Membrane protein is assayed by Coomassie Blue method (Pierce) using bovine serum albumin as standard.
Determination of inhibition constant (Ki) for each drug is determined as follows: The binding of ^3 H-idazoxan to membranes of vascular smooth muscle cells is determined in the presence of 0.1 nM to 100 μM concentrations of potential drug. The percent inhibition of specific binding of ^3 H-idazoxan by each concentration is calculated and plotted against concentration. The data is analyzed by non-linear curve fitting program, LIGAND and the IC50 value for each potential drug is calculated. The affinity for each drug (Ki) for I2 imidazoline receptors is calculated using the formula Ki =IC50 /1+L/Kd where L is the concentration of ^3 H-idazoxan used for binding and Kd is the dissociation constant for ^3 H-idazoxan for I2 imidazoline receptors. The dissociation constant (Kd) is determined by Scatchard analysis of the saturation binding of ^3 H-idazoxan using the formula [formula] where B and F are the amount of bound and free ligand, respectively, and Bmax is the number of binding sites.
Primary cultures of rat-aortic smooth muscle cells were prepared by a modification (described in Erlinge, Do, et al, Am. J. Physiol. 265, H1089-1097, 1993) of the method of Meyer-Lehnert and Schrier (Meyer-Lehnert, H., et al, Hypertension 13,350-361, 1989), the disclosure of these cited articles being incorporated herein by reference. Briefly, rats were killed by anesthetic overdose and the aorta were removed and incubated with collagenase (2 mg/ml) in Dulbecco's modified Eagle's minimum essential medium (DMEM). The vessel was stripped of adventitia, cut longitudinally and the intima scraped away. After further collagenase treatment, the remaining tissue was passed 20 times through 18 and 16 gauge needles. The resulting cell suspension was centrifuged at 500 × g for 5 minutes and resuspended in DMEM containing penicillin (100 units/ml), streptomycin (100 μg/ml), 2 mM L-glutamine and 10% fetal calf serum. The suspended cells were plated in T-75 flasks, cultured until confluent, and subcultured in 100 mm plates. The confluent cells were harvested and membranes were prepared. Cell viability was determined by trypan blue exclusion.

I2 imidazoline receptors [2] = experiment: saturation/specific binding of 3H-idazoxan to smooth muscle cell membranes (Scatchard analysis); set-up: species or system rat
Method: Binding to I2 imidazoline receptors is determined by the following assay. Membranes are prepared from cultured cells for ligand binding as described in Regunathan, S., et al, Biochem. Pharmacol. 45, 1667-1675 (1993) and Regunathan, S., et al, J. Neurosci. Res. 34, 681-688 (1993) and the disclosure in these on this is incorporated herein by reference. In particular, harvested rat aortic smooth muscle cells are homogenized in Hepes-sucrose buffer (pH 7.4) with a Teflon-glass homogenizer and centrifuged at 1000 × g for 10 minutes. The pellets are suspended in ice-cold Tris-HCl buffer (pH 7.7) with 5mM ethylene diamine tetracetic acid and homogenized using a Polytron (Brinkman Instruments) for 10 seconds. The homogenate is centrifuged at 40,000 × g for 30 minutes to produce a membrane pellet. The membrane pellet is washed three times by resuspending in buffer and re-centrifuging. […] Filters are suspended in scintillation fluid and radioactivity counted in a liquid scintillation counter. […]
Primary cultures of rat-aortic smooth muscle cells were prepared by a modification (described in Erlinge, Do, et al, Am. J. Physiol. 265, H1089-1097, 1993) of the method of Meyer-Lehnert and Schrier (Meyer-Lehnert, H., et al, Hypertension 13,350-361, 1989), the disclosure of these cited articles being incorporated herein by reference. […] Cell viability was determined by trypan blue exclusion.

SMILES | Hill Coefficient (nH) (I2 imidazoline receptors [1]) | Bmax relative to α2-adrenergic sites measured by 3H-rauwolscine (I2 imidazoline receptors [2]; 3H-idazoxan non-adrenergic sites vs 3H-rauwolscine sites) | number of non-adrenergic binding sites (Bmax) (I2 imidazoline receptors [2]; in presence of 10 μM epinephrine) [fmol/mg protein]
Cc1ccc(N(CC2=NCCN2)c2cccc(O)c2)cc1 [Phentolamine] | 0.75 ± 0.11 |  | 
c1ccc(CC2=NCCN2)cc1 [Tolazoline] | 0.89 ± 0.08 |  | 
NCCCCN=C(N)N [Agmatine, 4-(aminobutylguanidine)] | 0.63 |  | 
Brc1c(NC2=NCCN2)ccc2nccnc12 [UK 14,304, 5-bromo-N-(4,5-dihydro-1-H-imidazol-2-yl)-6-quinoxalinamine] | 0.69 ± 0.04 |  | 
c1ccc2c(c1)OCC(C1=NCCN1)O2 (centres unmarked) [^3 H-idazoxan] |  | about 10 fold | 610 ±45
c1ccc2c(c1)OCC(C1=NCCN1)O2 (centres unmarked) [Idazoxan, 2-[2-(1,4-benzodioxanyl)]-2-imidazoline] | 0.95 ± 0.05 |  | 
Clc1cccc(Cl)c1N=C1NCCN1 [Clonidine] | 0.65 ± 0.05 |  | 
